Data on two molecules can be found in US9630896B2, “2,5-dialkyl-4-H/halo/ether-phenol compounds” (Tansna Therapeutics Inc, priority 2013, dated 2017).

Some results are limits rather than exact numbers.

The data set concerns 6 Hz 32 mA Epilepsy Model (electrically induced psychomotor seizure). The data set can be described thus: Minimal clonic seizure (6 Hz, 32 mA) test. In kind it is in vivo, Mouse. Particulars: 6 Hz 32 mA dose response (Test 7-2); TD50 relative to ED50. From the text: 1. Minimal Clonic Seizure (6 Hz, 32 mA or 44 mA) Test
Test compounds are pre-administered to mice via i.p. injection. At varying times, individual mice (four per time point) are challenged with sufficient current delivered through corneal electrodes to elicit a psychomotor seizure in 97% of animals (32 mA or 44 mA for 3 s) (Toman J E P, Everett G M, Richards R K: The Search for New Drugs against Epilepsy. Texas Reports on Biology and Medicine 1952; 10:96-104). Untreated mice will display seizures characterized by a minimal clonic phase followed by stereotyped, automatistic behaviors described originally as being similar to the aura of human patients with partial seizures. Animals not displaying this behavior are considered protected. The test compounds are evaluated quantitatively by measuring the responses at varying doses at a determined time of peak effect (TPE).

`Cc1cc(Br)c(C(C)C)cc1O` [Ex. 9, 4-bromo-5-isopropyl-2-methyl phenol]: the “Protective Index (PI)” value is reported as 21.5.
Turning to `Cc1cc(O)c(C(C)C)cc1Br` [Ex. 132, 4-Bromo-2-isopropyl-5-methyl-phenol], the “Protective Index (PI)” value is reported as greater than 7.3.
